Experimental data: PMC8463586
Results are given in words; binding and its absence hold for the method and conditions named. Binding seen in cells or lysates may run through a third protein. Some results given as binding are weak or reduced against the parent protein; the word gives no strength. Tags and fused reporters may be left off the sequences shown.

T1: Flag-Diap1 (Drosophila IAP-1) (Drosophila) (UniProt Q24306)
T1 sequence: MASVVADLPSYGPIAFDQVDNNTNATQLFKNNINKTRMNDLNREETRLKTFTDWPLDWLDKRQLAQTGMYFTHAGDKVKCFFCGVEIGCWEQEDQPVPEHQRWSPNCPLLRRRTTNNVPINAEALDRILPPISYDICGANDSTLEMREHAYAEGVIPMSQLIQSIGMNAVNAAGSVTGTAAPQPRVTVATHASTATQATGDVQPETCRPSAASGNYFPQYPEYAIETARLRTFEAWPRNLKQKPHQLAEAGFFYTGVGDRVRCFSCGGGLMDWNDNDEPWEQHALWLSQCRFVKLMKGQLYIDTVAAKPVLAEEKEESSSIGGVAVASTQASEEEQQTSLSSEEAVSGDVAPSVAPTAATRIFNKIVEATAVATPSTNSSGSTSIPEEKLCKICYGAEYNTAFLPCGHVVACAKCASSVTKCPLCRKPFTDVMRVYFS

T2: Myc-Dronc (Drosophila Nedd2-like caspase) (Drosophila) (UniProt Q9XYF4)
T2 sequence: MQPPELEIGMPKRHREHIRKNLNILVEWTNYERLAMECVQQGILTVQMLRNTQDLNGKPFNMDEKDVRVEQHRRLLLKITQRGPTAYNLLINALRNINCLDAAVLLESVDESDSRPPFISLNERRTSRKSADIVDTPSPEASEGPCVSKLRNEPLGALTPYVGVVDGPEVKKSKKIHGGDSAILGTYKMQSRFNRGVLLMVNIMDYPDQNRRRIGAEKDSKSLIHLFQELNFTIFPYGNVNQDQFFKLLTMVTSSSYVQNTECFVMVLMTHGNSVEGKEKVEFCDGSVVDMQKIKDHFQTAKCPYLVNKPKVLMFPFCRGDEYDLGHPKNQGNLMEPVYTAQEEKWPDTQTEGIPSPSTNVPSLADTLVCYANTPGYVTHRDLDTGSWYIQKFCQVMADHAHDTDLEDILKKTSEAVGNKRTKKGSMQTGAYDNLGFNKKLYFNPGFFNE


How the values were obtained:
[1] = biological target: T1, Flag-Diap1 (Drosophila IAP-1) (Drosophila); test: co-IP; 293T cells transfected with Diap1 and Dronc, with or without co-expressed Rdx; IP and immunoblot
[2] = biological target: T1, Flag-Diap1 (Drosophila IAP-1) (Drosophila); test: co-IP; 293T cells transfected with the tagged constructs, harvested two days later; IP with mouse anti-Flag or mouse anti-Myc, immunoblot
[3] = biological target: T2, Myc-Dronc (Drosophila Nedd2-like caspase) (Drosophila); test: as above

Row | Binder | binding [1] | binding [2] | binding [3]
1 | Myc-Dronc (Drosophila Nedd2-like caspase) (protein, UniProt Q9XYF4 1-450) MQPPELEIGMPKRHREHIRKNLNILVEWTNYERLAMECVQQGILTVQMLRNTQDLNGKPFNMDEKDVRVEQHRRLLLKITQRGPTAYNLLINALRNINCLDAAVLLESVDESDSRPPFISLNERRTSRKSADIVDTPSPEASEGPCVSKLRNEPLGALTPYVGVVDGPEVKKSKKIHGGDSAILGTYKMQSRFNRGVLLMVNIMDYPDQNRRRIGAEKDSKSLIHLFQELNFTIFPYGNVNQDQFFKLLTMVTSSSYVQNTECFVMVLMTHGNSVEGKEKVEFCDGSVVDMQKIKDHFQTAKCPYLVNKPKVLMFPFCRGDEYDLGHPKNQGNLMEPVYTAQEEKWPDTQTEGIPSPSTNVPSLADTLVCYANTPGYVTHRDLDTGSWYIQKFCQVMADHAHDTDLEDILKKTSEAVGNKRTKKGSMQTGAYDNLGFNKKLYFNPGFFNE | binds | binds | 
2 | Flag-Diap1 (Drosophila IAP-1) (protein, UniProt Q24306 1-438) MASVVADLPSYGPIAFDQVDNNTNATQLFKNNINKTRMNDLNREETRLKTFTDWPLDWLDKRQLAQTGMYFTHAGDKVKCFFCGVEIGCWEQEDQPVPEHQRWSPNCPLLRRRTTNNVPINAEALDRILPPISYDICGANDSTLEMREHAYAEGVIPMSQLIQSIGMNAVNAAGSVTGTAAPQPRVTVATHASTATQATGDVQPETCRPSAASGNYFPQYPEYAIETARLRTFEAWPRNLKQKPHQLAEAGFFYTGVGDRVRCFSCGGGLMDWNDNDEPWEQHALWLSQCRFVKLMKGQLYIDTVAAKPVLAEEKEESSSIGGVAVASTQASEEEQQTSLSSEEAVSGDVAPSVAPTAATRIFNKIVEATAVATPSTNSSGSTSIPEEKLCKICYGAEYNTAFLPCGHVVACAKCASSVTKCPLCRKPFTDVMRVYFS |  |  | binds
